PubChem BioAssay AID1159584 – Peter MacCallum Cancer Centre, 2016

Aim: 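Knock-downs that harm CDH1-null cells more than parental MCF10A cells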 (primary screen)
Cell system: human MCF10A breast epithelial cells, parental and CDH1-null
Knock-down reagent: siRNA against human genes
Detection: 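ATP luminescence (CellTiter-Glo) viability per line relative to mean mock wells over all plates, and the ratio of CDH1-null to parental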
Scale: CDH1-null / parental viability ratio: higher = CDH1-null cells survive relatively better than parental; CDH1-null viability vs mock: higher = more viable CDH1-null cells; parental viability vs mock: higher = more viable parental cells
Here is an unselected part of about 18,000 deposited reagents. Not stated in the record: the amount of reagent, the time to read-out.

target gene	CDH1-null / parental viability ratio	CDH1-null viability vs mock (fraction of mock)	parental viability vs mock (fraction of mock)
CTNNB1 (GeneID 1499)	0.92	0.86	0.93
GPALPP1 (GeneID 55425)	0.87	0.84	0.97
PLEKHJ1 (GeneID 55111)	1.02	0.5	0.49
RAB25 (GeneID 57111)	1.33	1.13	0.85
NUP37 (GeneID 79023)	1.22	0.99	0.81
SDHAF1 (GeneID 644096)	1.45	0.64	0.44
RAET1E (GeneID 135250)	0.98	1.11	1.13
CPNE4 (GeneID 131034)	0.89	0.8	0.9
MOB3B (GeneID 79817)	1.09	0.84	0.77
NXPE1 (GeneID 120400)	0.85	0.56	0.66
CRYBG3 (GeneID 131544)	1.38	0.58	0.42
TULP2 (GeneID 7288)	0.93	0.71	0.76
DENND5B (GeneID 160518)	1.2	0.98	0.82
GATA6 (GeneID 2627)	1.1	0.95	0.86
CHMP7 (GeneID 91782)	0.92	0.68	0.74
GHITM (GeneID 27069)	1.07	1.04	0.97
OCM2 (GeneID 4951)	1.1	1.01	0.92
TCF19 (GeneID 6941)	1	0.87	0.87
KCNK2 (GeneID 3776)	1.05	0.61	0.58
PHF5A (GeneID 84844)	0.98	0.94	0.96
SNAP47 (GeneID 116841)	0.98	0.84	0.86
PHACTR4 (GeneID 65979)	1.16	0.8	0.69
TMC1 (GeneID 117531)	1.21	0.92	0.76
GAS2 (GeneID 2620)	1.05	0.86	0.82
ABAT (GeneID 18)	0.8	0.56	0.7
FAM78A (GeneID 286336)	0.79	0.5	0.63
NCAM2 (GeneID 4685)	0.89	1.04	1.17
FIP1L1 (GeneID 81608)	1.56	0.75	0.48
ADAMTS6 (GeneID 11174)	1.05	0.78	0.74
ZNF444 (GeneID 55311)	0.88	0.9	1.02
BRAP (GeneID 8315)	0.86	0.62	0.72
DNAAF10 (GeneID 116143)	0.76	0.74	0.97
ACRBP (GeneID 84519)	0.97	0.64	0.66
CRMA (GeneID 253868)	1.25	0.4	0.32
VHLL (GeneID 391104)	0.96	0.64	0.67
FGFR4 (GeneID 2264)	1.12	0.94	0.84
SLC47A2 (GeneID 146802)	1.21	0.64	0.53
ZBTB49 (GeneID 166793)	1.06	0.72	0.68
TBC1D17 (GeneID 79735)	0.94	0.58	0.62
ZDHHC6 (GeneID 64429)	1.42	0.98	0.69
VIM (GeneID 7431)	0.89	0.54	0.61
CDIP1 (GeneID 29965)	1.11	0.97	0.87
GALNTL5 (GeneID 168391)	0.72	0.58	0.8
OBP2B (GeneID 29989)	0.97	0.88	0.91
EIF4A2 (GeneID 1974)	1.18	1.14	0.97
BHLHA15 (GeneID 168620)	1.13	0.93	0.82
MANEA (GeneID 79694)	0.9	0.74	0.82
TSKS (GeneID 60385)	0.81	0.7	0.86
WNT8A (GeneID 7478)	0.85	0.34	0.4
SSX6P (GeneID 280657)	1.43	0.9	0.63
NOMO1 (GeneID 23420)	0.83	0.88	1.06
PMEPA1 (GeneID 56937)	1.05	0.64	0.61
SOHLH1 (GeneID 402381)	0.93	0.86	0.92
SOCS2 (GeneID 8835)	1.02	0.82	0.8
SEL1L (GeneID 6400)	0.74	0.55	0.74
SLC66A1 (GeneID 54896)	1.16	0.94	0.81
H4C16 (GeneID 121504)	1.08	0.54	0.5
ACTN1 (GeneID 87)	1.22	0.9	0.74
MRPL58 (GeneID 3396)	1.05	0.8	0.76
SMCR8 (GeneID 140775)	0.73	0.63	0.86
NCAPD3 (GeneID 23310)	0.85	0.57	0.67
FSCB (GeneID 84075)	1.11	1.05	0.95
TM2D2 (GeneID 83877)	0.91	0.74	0.81
TMPRSS11F (GeneID 389208)	1.07	0.93	0.87
NAP1L5 (GeneID 266812)	1	0.9	0.9
COLEC11 (GeneID 78989)	1.31	0.42	0.32
SCN10A (GeneID 6336)	1.29	0.98	0.76
TMED4 (GeneID 222068)	1.18	0.66	0.56
